The record followed here is patent EP4818684A1, “MATERIAL FOR FORMING X-RAY STRUCTURE ANALYSIS SAMPLE, AND METHOD FOR DETERMINING MOLECULAR STRUCTURE OF ORGANIC COMPOUND USING SAME” (The University of Tokyo, priority 2023, dated 2025).

For the data set the following is noted: Sample forming material 4; 1 µg organic compound (X), 50°C, 17 hours; some cells add '(Collapse of Crystal structure)'.

Structures are written as SMILES.

For the compound `c1ccc(CNCc2ccccc2)cc1` [Example 23], the “Ability to be analyzed for crystal structure” value is listed as “× (Collapse of Crystal structure)”.
